Measured values from PubChem BioAssay AID588463 (National Center for Advancing Translational Sciences (NCATS), 2011).
Among all 1,200 compounds or so, about 15 (1%) were called active. Roughly 7% stayed inconclusive and do not appear here. The call rests on the fitted dose curve; in most records, active means well fitted activation curve with a large enough effect; inconclusive means small, poorly fitted or top-dose-only effect; inactive means flat fitted curve, though single readings scatter. The list shows a part of the results.

molecular target: Beta-2 adrenergic receptor (Homo sapiens) (UniProt P07550); assay: qHTS assay of beta-arrestin-biased ligands of beta2-adrenergic receptor: Hit Validation; settings: cell-based beta-arrestin recruitment to beta2AR; Potency: activation; series mostly up to 46.1 µM; activation: at the top concentration;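 further: plate controls were DMSO for no effect and maximal isoproterenol or metaproterenol response for full effect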
Outline: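 Luminescent tTA-driven luciferase reporter in Tango cells, read after 18 h at 37 °C with compound and 15 min with substrate mix (0.15 mM ATP, 0.44 mM D-luciferin, final). Concentration-response fits categorized by curve class.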

activation, inactive:
CC(=O)c1c(N2CCOCC2)nc(=O)n(-c2ccccc2)c1C -3.04%
C/C(=N\NC(=S)NC(C)C)c1ccco1 0.73%
NC(=O)c1sc2nc(-c3ccco3)ccc2c1N -0.0167%
COc1cc(/C=C2\CC(C(C)(C)C)C/C(=C\c3cc(OC)c(OC)c(OC)c3)C2=O)cc(OC)c1OC (configuration not stated) -2.89%
COc1cccc(NC(=S)NN=C2CCCCCC2)c1 -0.788%
C=C(C)c1cccc(C(C)(C)NC(=O)NC(c2ccccc2)c2ccc(OC)cc2)c1 (configuration not stated) 8.73%
COC(CN(C(=O)CCl)C(C(=O)NC1CCCC(C)C1C)c1ccc(C)cc1)OC (configuration not stated) -4.4%
CC(C)CNC(=O)CN(C)S(=O)(=O)c1ccc(F)cc1 -3.8%
Cc1nc(NC(=S)Nc2ccccc2)sc1C -1.95%
COc1cc(C(c2nnnn2C(C)(C)C)N2CCN(C)CC2)cc(OC)c1OC (configuration not stated) -0.645%
Clc1ccc(OCc2nc(-c3ccccn3)n[nH]2)cc1 -1.51%
C=C(C)Cn1c(SCC(=O)N/N=C/c2cccc(O)c2)nc2ccccc2c1=O -1.27%
O=c1c(C(c2ccccc2)c2c(O)nc3n(c2=O)CCS3)c(O)nc2n1CCS2 -2.35%
CCCCCOc1ccc(NC(=O)CSc2cccc3cccnc23)cc1 0.173%
Oc1ccc2c(ccc3[nH]cnc32)c1 -2.43%
O=[N+]([O-])c1ccc(Cl)c(C2Nc3cccc4cccc(c34)N2)c1 -2.34%
CCc1nnc(NC(=S)Nc2ccccc2)s1 -2.15%
COc1cc(/C=N/NC(=S)NC2CC3C=CC2C3)cc(OC)c1OC (configuration not stated) -3.31%
S=C(Nc1ccccc1Cl)N(Cc1ccccc1)Cc1ccccn1 -11%
Oc1c(CN2CCN(c3ccccc3)CC2)cc(Br)c2cccnc12 -0.0884%
CCN(CC)c1cc(C(F)(F)F)nc(-c2ccccn2)n1 -3.79%
CCOC(=O)N1CCN(Cc2c(F)cccc2F)CC1 -2.4%
CCOC(=O)n1c(=O)oc2cc(S(=O)(=O)N3CCCCC3)ccc21 -4.09%
Cn1c(=S)c2[nH]c(SCCN3CCCC3)nc2n(C)c1=O -2.7%
O=C(Nc1ccc(Cl)cc1)/C(=C/c1cccc(O)c1)c1nc2ccccc2s1 -4.71%
CC1(C)Cc2c(sc3[nH]c(=S)n(Cc4ccccc4)c(=O)c23)CO1 -4.31%
O=c1[nH]c(CSc2ccccn2)nc2c1cnn2-c1ccccc1 -0.631%
CC1=NN(c2ccccc2)C(=O)/C1=C/C=C/c1ccccc1 -3.2%
CCN(CC)S(=O)(=O)c1ccc(C)c(NC(=S)Nc2cccc(S(=O)(=O)N3CCCCCC3)c2)c1 0.658%
COc1ccc(CN=C2NN=C(c3ccccc3)CS2)cc1 -5.3%
O=C(/C=C/c1ccc(N2CCCCC2)c([N+](=O)[O-])c1)c1ccc(S(=O)(=O)N2CCCC2)cc1 -3.08%
CN(Cc1ccccc1)CC(O)COc1ccc(CNCCCOc2cccnc2)cc1 (configuration not stated) -2.7%
COc1ccc(O)c(/C=N/Nc2nc(Nc3ccccc3)nc(-n3nc(C)cc3C)n2)c1 -2.97%
Cc1cc(C(=O)COC(=O)Cc2n[nH]c(=O)c3ccccc23)c(C)n1-c1ccc2c(c1)OCCO2 3.48%
CCCN(CC(=O)Nc1ccc(Cl)cc1Cl)C(=O)/C=C/c1ccco1 -2.23%
Cc1cccnc1NC(=S)Nc1ccc(Br)cc1Cl -1.9%
COc1ccc(N2COC3c4cccc5cccc(c45)C32)cc1 (configuration not stated) -1.17%
O=C1c2ccccc2-c2onc3ccc(Oc4ccccc4)c1c23 -3.37%
CC(=O)c1sc(Nc2nc3ccc(F)cc3s2)nc1C -2.59%
CSc1cccc(CN2CCC(Oc3cccc(C(=O)N4CCCC4)c3)CC2)c1 -2.33%
CN(C)NC(=S)NC(=O)C12CC3CC(CC(C3)C1)C2 -2%
CCCC(=O)NC(c1ccccc1OC)c1ccc2cccnc2c1O (configuration not stated) -3.63%
COC(=O)N1C(=O)[C@@](c2ccc(OC)cc2)(C(C)C)N1C(=O)OC -0.416%
CCCC1CCC(=NNC(=S)NCCc2ccccc2)CC1 (configuration not stated) -2.41%
COc1ccc(/C=N/NC(=S)Nc2ccccc2)cc1 -1.6%
C/C(CCc1ccccc1)=N\NC(=S)NCCc1ccccc1 -4.15%
CCNc1nc(-c2cc3ccccc3o2)cs1 -3.12%
NS(=O)(=O)c1ccc(N2CCOCC2)c(C(=O)NCc2cccs2)c1 -0.191%
O=C(Cn1c(=O)c2sccc2n(Cc2cccc([N+](=O)[O-])c2)c1=O)NCCc1ccccc1 -1.94%
CO/C=C\C=C/c1nnn(-c2ccc(Cl)cc2)n1 -0.995%
O=C(Nc1cccc2ccccc12)N1N=CCC1c1ccccc1 (configuration not stated) -2.81%
Cc1cccc(C)c1-n1c(C)cc(/C=N/NC(N)=S)c1C -4.05%
Cc1cc(C)cc(OCCn2nnc3ccccc32)c1 -0.728%
O=C(/C=C\c1ccco1)Oc1cccc2cccnc12 -1.94%
CCCc1cc(=O)n2[nH]c(-c3ccc(Cl)cc3)cc2n1 -1.03%
C=C(C)C(=O)OC1(C(F)(F)F)Oc2cc(C)ccc2NC1=O (configuration not stated) 0.118%
O=C(O)c1cn(Cc2ccccc2)c2ccccc2c1=O -4.98%
O=[N+]([O-])c1cc([N+](=O)[O-])c2cc3ccccc3nc2c1 -2.08%
C/C(Cl)=C\Cn1c(O)c(N=NC(N)=S)c2ccccc21 -3.24%
C(=N\NC1=Nc2cccc3cccc1c23)/c1ccccn1 -0.451%
CC(=O)OC[C@H]1O[C@@H](Sc2cccc3cccnc23)[C@H](OC(C)=O)[C@@H](OC(C)=O)[C@H]1OC(C)=O -2.15%
CCC(=O)Nc1ccc2c(c1)C(=O)c1ccccc1C2=O -1.51%
COc1cccc(OCC(=O)Nc2c3c(nn2-c2ccc(F)cc2)CS(=O)(=O)C3)c1 -3.13%
C[C@H](C(=O)CC(=O)OC(C)(C)C)[C@H](O)c1ccccc1 -4.43%
Cc1cccc(NC(=S)NCc2ccco2)n1 -1.1%
CNC(=S)N/N=C(\C)c1cccc(C(F)(F)F)c1 -2.59%
C=CCn1c(CCn2c3ccccc3c3ccccc32)n[nH]c1=S -1.05%
N/C(=C\C(=O)c1cc(Cl)ccc1O)C(Cl)(Cl)Cl -2.69%
COc1ccc2c(c1)c1ncn(CCN3CCCCC3)c(=O)c1n2C -0.19%
Cc1cc(C)n(-c2nc(NCC3CCCO3)c3c4c(sc3n2)COC(C)(C)C4)n1 (configuration not stated) -2.68%
NC(=S)N/N=C/c1ccc(-c2ccc(SC(F)F)cc2)o1 -4.96%
COC(=O)C1=C(C)NC(=S)NC1c1ccc(-c2cc(Cl)ccc2Cl)o1 (configuration not stated) -1.05%
O=C(Oc1c(Cl)cc(Cl)c2cccnc12)c1cccs1 -2.15%
CCCCC(=O)NC(=S)Nc1nnn(CCC)n1 -5.04%
O=C(COc1ccc2ccccc2c1)Nc1ccc(Br)cc1C(=O)O -2.26%
COc1ccc(NC(=S)N/N=C/c2ccc(F)c(F)c2)cc1 -3.06%
O=C(CSc1cccc[n+]1[O-])c1ccc(Cl)s1 -3.9%
O=C(N/N=C/C(Br)=C/c1ccccc1)c1cnccn1 3.91%
CCOCCc1c(O)nc(SC)[nH]c1=O -3.04%
Clc1cccc(Cl)c1C1Nc2cccc3cccc(c23)N1 -3.31%
CCC(NC(=O)NNC(N)=S)(C(F)(F)F)C(F)(F)F -2.95%
CCn1ncc(Cl)c1C(=O)NC(=S)Nc1ccccc1Br -2.87%
CCCCNC(=S)NNC(=O)CCn1nc(C)c(Br)c1C -2.27%
Cc1nc2ccccc2nc(C)c1=NOCc1ccc(C#N)cc1 -1.14%
CCN(CC)c1ccc(/C=N/Nc2nn[nH]n2)cc1 -1.85%
COCCNC(=S)NN=C1CCCCCC1 -2.04%
NC(=S)N=Nc1c(O)n(Cc2ccc(F)cc2)c2ccccc12 -0.28%
Cn1c(SCC(=O)N/N=C/c2ccc([N+](=O)[O-])s2)nnc1-c1ccccc1 -4.21%
Cc1ccc(Nc2nc(CSc3nnc(-c4ccccc4C)n3C)cs2)cc1 -1.34%
O=Nc1onc(-c2ccc([N+](=O)[O-])cc2)c1NO -3.64%
CCOc1ccc(C2=CSC3=NCCN23)cc1 -1.7%
C/C(=N\NC(=S)NCc1ccccc1)c1cccs1 -2.8%
COC(=O)c1c(NC(=O)CS(=O)(=O)c2ccccc2)sc(C)c1C -1.35%
O=C(NC(=S)Nc1ccccc1Cl)C1CC1 -2.58%
COC(=O)c1ccc(NC(=O)c2ccccc2)o1 0.298%
Cc1nc(C)c(CC(=O)N/N=C/c2ccc(O)cc2)c(=O)[nH]1 -2.66%
O=C(c1cccs1)N1N=C(c2ccc(O)cc2)CC1c1ccccc1 (configuration not stated) -1.1%
O=C(c1ccco1)N1CCCN(Cc2nc(-c3ccc4c(c3)OCO4)no2)CC1 -0.603%
COc1ccc(N2CCN(C(=O)C3CCN(S(=O)(=O)c4ccc(F)cc4)CC3)CC2)cc1 0.327%
Fc1ccccc1NC(=S)Nn1cnnc1 -2.95%
C=C(C)C1Cc2c(C)nn(-c3ccccn3)c2C1 (configuration not stated) -2.48%
COc1ccc(NC(=O)C(=O)NCC(c2ccco2)N2CCc3ccccc32)cc1 (configuration not stated) -2.76%
CC(C)(C)c1ccc2c(c1)OC(C(=O)N/N=C\c1ccc[nH]1)CO2 (configuration not stated) -8.5%
CCNC(=S)N/N=C/c1ccco1 -3.62%
CC1=CC2=NC(=O)/C(=C\c3cccn3CCOc3cc(C)ccc3C)C(=N)N2O1 6.22%
NC(=S)N/N=C/c1ccc(-c2ccccc2)o1 -2.68%
NNc1nc2c(Cl)cccc2s1 -2.97%
CCOc1ccccc1OCC(=O)O 12.7%
CCCc1nc2ccccc2c(C(=O)OCC(=O)NCc2ccc3c(c2)OCO3)c1CC -0.454%
CCc1ccc(/C=N/n2c(C)cc(C)c(C#N)c2=O)cc1 -1.97%
N#Cc1cccc2c1-c1ccccc1/C2=N/NC(N)=S -3.02%
CC1CCC2C(=O)N(c3ccc(C(=O)Oc4cccc5cccnc45)cc3)C(=O)C2C1 (configuration not stated) -0.993%
CC1C/C(=N\NC(N)=S)c2cc(Cl)ccc2S1 (configuration not stated) -3.51%
C=CCC(CC(O)COCCC)C(=O)NNC(=S)Nc1ccccc1 (configuration not stated) -3.17%
CC1CC(C)(C)N(C(=O)CN2CCN(C)CC2)c2ccccc21 (configuration not stated) -2.37%
CC1(C)Cc2ccccc2-c2n[nH]c(=S)n21 -4.09%
O=C1NC(=S)/C(=C\c2ccc(-c3ccccc3Cl)o2)S1 -1.98%

Four compounds from above, arranged by length of the SMILES, falling.
activation, inactive:
O=C(Nc1ccc(Cl)cc1)/C(=C/c1cccc(O)c1)c1nc2ccccc2s1 -4.71%
NC(=S)N/N=C/c1ccc(-c2ccc(SC(F)F)cc2)o1 -4.96%
O=C(Oc1c(Cl)cc(Cl)c2cccnc12)c1cccs1 -2.15%
CCNC(=S)N/N=C/c1ccco1 -3.62%

Copied from the entries so far (3 entries):
activation, inactive:
CNC(=S)N/N=C(\C)c1cccc(C(F)(F)F)c1 -2.59%
C=CCn1c(CCn2c3ccccc3c3ccccc32)n[nH]c1=S -1.05%
N/C(=C\C(=O)c1cc(Cl)ccc1O)C(Cl)(Cl)Cl -2.69%

2 compounds drawn at random from the list so far:
activation, inactive:
O=C(Nc1cccc2ccccc12)N1N=CCC1c1ccccc1 (configuration not stated) -2.81%
CC(=O)c1sc(Nc2nc3ccc(F)cc3s2)nc1C -2.59%
